For assay [1], the target named is T1, PBP2SAL-3xFLAG (Salmonella enterica serovar Typhimurium) (UniProt E1WGF1).
T1 sequence: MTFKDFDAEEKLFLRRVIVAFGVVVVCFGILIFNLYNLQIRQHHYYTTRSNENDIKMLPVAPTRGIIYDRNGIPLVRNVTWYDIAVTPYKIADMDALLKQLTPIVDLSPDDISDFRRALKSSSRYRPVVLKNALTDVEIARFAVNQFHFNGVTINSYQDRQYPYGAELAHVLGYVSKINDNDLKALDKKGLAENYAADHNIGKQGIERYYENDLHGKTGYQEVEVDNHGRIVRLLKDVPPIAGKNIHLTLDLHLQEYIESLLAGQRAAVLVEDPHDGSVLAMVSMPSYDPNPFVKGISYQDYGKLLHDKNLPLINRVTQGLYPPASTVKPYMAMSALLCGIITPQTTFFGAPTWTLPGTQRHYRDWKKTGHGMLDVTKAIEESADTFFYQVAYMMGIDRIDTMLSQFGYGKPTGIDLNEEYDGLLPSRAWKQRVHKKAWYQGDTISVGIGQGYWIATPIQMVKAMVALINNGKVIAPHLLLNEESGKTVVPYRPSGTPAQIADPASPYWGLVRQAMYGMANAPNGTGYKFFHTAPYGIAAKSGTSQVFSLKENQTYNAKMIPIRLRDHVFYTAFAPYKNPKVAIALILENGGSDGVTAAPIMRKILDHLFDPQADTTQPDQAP
The assay can be described thus: affinity purification with mass spectrometry; high-molecular-weight complexes cross-linked in vivo with DSS, pulled down with anti-PBP2 or anti-FLAG (PBP2SAL-3xFLAG) from membrane fractions of WT, ΔmrdA and ΔPBP2SAL cells grown in acidic pH; in-gel trypsin digestion, LC-MS/MS, Skyline.

Amino acid sequences for entries named in this document (tags omitted). A change or cut given only in a name is not applied to a line headed by its entry.
UniProt A0A2X4SXG2: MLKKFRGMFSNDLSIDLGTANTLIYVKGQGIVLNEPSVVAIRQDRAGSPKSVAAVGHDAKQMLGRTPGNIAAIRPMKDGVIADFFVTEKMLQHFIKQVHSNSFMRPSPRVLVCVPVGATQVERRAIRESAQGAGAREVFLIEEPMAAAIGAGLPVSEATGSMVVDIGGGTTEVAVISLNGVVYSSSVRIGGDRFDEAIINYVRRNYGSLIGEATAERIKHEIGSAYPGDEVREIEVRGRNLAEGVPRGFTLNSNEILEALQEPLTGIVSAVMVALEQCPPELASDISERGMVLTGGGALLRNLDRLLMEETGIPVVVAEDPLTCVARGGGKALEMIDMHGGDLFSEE
UniProt A0A2X4TC34: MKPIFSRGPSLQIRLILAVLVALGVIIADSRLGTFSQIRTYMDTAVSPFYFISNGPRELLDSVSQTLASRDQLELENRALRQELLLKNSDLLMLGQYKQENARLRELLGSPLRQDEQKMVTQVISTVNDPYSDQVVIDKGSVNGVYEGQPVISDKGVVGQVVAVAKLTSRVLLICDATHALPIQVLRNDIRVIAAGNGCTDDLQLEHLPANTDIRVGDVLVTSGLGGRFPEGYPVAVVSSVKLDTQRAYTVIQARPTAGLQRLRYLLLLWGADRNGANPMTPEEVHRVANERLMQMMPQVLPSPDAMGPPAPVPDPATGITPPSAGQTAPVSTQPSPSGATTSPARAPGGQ
UniProt A0A8G0F5U8: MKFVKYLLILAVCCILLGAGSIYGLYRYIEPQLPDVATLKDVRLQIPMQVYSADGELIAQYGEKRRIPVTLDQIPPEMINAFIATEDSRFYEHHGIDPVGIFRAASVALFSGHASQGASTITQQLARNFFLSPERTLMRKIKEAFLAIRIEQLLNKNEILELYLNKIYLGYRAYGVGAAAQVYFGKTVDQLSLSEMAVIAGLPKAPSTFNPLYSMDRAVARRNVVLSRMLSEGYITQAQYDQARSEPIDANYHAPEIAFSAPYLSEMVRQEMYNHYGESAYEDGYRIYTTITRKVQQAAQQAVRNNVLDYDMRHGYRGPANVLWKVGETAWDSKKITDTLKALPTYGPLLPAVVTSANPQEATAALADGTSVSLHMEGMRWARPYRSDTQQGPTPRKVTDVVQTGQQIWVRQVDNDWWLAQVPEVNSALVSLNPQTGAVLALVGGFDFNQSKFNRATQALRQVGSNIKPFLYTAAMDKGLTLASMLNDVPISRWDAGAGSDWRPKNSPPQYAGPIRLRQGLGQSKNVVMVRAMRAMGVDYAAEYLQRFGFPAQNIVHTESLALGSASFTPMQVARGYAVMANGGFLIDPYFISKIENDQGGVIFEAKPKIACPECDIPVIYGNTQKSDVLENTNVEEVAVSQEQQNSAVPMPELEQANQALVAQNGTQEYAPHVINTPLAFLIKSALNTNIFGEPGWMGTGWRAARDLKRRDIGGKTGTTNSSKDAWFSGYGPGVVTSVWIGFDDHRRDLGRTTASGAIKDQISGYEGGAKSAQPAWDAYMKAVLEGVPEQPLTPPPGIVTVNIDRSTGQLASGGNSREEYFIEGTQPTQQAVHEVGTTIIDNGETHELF
UniProt A0A4Z0KQS0: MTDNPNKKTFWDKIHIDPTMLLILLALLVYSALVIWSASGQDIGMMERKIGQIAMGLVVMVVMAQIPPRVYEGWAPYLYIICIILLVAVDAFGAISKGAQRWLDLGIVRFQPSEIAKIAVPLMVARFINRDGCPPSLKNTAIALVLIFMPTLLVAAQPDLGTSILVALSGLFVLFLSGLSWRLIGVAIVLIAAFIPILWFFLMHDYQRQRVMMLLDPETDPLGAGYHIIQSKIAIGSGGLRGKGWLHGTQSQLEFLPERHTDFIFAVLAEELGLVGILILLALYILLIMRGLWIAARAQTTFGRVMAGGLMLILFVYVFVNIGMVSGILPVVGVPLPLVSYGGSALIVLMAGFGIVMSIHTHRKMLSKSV

The target in assay [2] is PBP2 (MrdA) (Salmonella enterica serovar Typhimurium (endogenous in strain SV5015, SL1344 hisG+)). The assay is described as above.

No constants are given. Whether binding was seen depends on the method and setting. Binding seen in cells or lysates may run through a third protein. Here binding means that the protein was enriched with, or labelled near, the bait; the list need not be complete. No binding means not detected with the bait. Tags and fused reporters may be left off the sequences shown.

On to DacA (PBP5) (enzyme), for which the binding entry in assay [1] is listed as “binds”.
In the case of DacB (PBP4) (enzyme), in assay [1], the binding entry is recorded as “binds”.
DacC (PBP6) (enzyme): the binding entry in assay [1] is on record as “binds”.
The same measure, in the same setting: under DacD (PBP6b) (enzyme) stands “binds”.
Still for that read-out and setting: under MepM (enzyme) stands “no binding”; under MepS (enzyme), “no binding”; under MreB (from UniProt A0A2X4SXG2 1-347), “binds”.
On the same count and under the same terms, under MreC (from UniProt A0A2X4TC34) stands “binds”; under “PBP1a (from UniProt A0A8G0F5U8) (enzyme)”, “binds weakly”.
As to PBP1b (enzyme), the binding entry in assay [1] was “binds”.
On the same count and under the same terms, under PBP2 (MrdA) (enzyme) stands “no binding”; under “RodA (MrdB) (from UniProt A0A4Z0KQS0) (enzyme)”, “binds”.
On to RodZ, for which the binding entry in assay [1] is reported as “binds”.

B1: PBP2SAL-3xFLAG (enzyme, UniProt E1WGF1 1-623)
chain: T1 sequence
Turning to B1, the binding result in assay [2] is given as “no binding”.

The values are drawn from article PMC10492807.
